Data as given in PubChem BioAssay AID504764 (Drosophila RNAi Screening Center, 2011).

- Screen: 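Genome-wide screen for regulators of Notch-driven gene expression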 (primary screen)
- System: Drosophila Kc167 cells
- Knock-down reagent: long dsRNA against Drosophila genes
- Duration: about 5 days (4 days dsRNA, then 24 h after transfection)
- Treatment: transfection of constitutively active membrane-tethered Notch lacking the extracellular domain, read 24 h later
- Measured: 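Light from a Notch-responsive E(spl)m3 luciferase reporter under active Notch, with control-promoter and no-Notch reporter wells to normalise; raw counts from paired wells a and b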
- Scale: induced reporter light, run 1, well a and induced reporter light, run 1, well b: higher = more light from the Notch target reporter with active Notch; control promoter light, run 1, well a and control promoter light, run 1, well b: higher = more light from the viral control promoter (cell number, transfection, viability); uninduced reporter light, run 1, well a: higher = more light from the Notch target reporter without active Notch
- Call rule: 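Hit if the duplicate-averaged log2 ratio of induced to control-promoter light gives a plate-wise z beyond ±2, or induced to uninduced beyond ±1.8; weak-control or discordant-duplicate wells dropped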
- Calls: active = modifier hit (raised or lowered Notch signal); inactive = not a hit
The screen tested about 22,000 reagents; below is an unselected part of those that have a named target and a result. Of all reagents, 403 (1.9%) are marked active. 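Unnormalised raw counts per well; ratio z-scores behind the hit calls and whether each hit raises or lowers signal are not deposited.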 A plus sign joins genes that one reagent is predicted to hit. Not stated in the record: the amount of reagent.

no.	target gene	amplicon	induced reporter light, run 1, well a	induced reporter light, run 1, well b	control promoter light, run 1, well a	control promoter light, run 1, well b	uninduced reporter light, run 1, well a	outcome
1	esc	DRSC03529	1.75e5	1.60e5	1.66e5	1.61e5	17340	inactive
2	CG2217 + CG42740	DRSC14141	57250	69545	60735	73265	4010	inactive
3	CG34342	DRSC09756	2.15e5	2.01e5	2.18e5	1.64e5	9788	inactive
4	GABA-B-R3	DRSC00561	1.27e5	1.19e5	99965	55840	9295	inactive
5	ocn	DRSC17020	1.15e5	1.18e5	1.56e5	1.58e5	10820	inactive
6	fs(2)ltoPP43	DRSC02067	53905	38810	37530	44985	3180	inactive
7	Cyt-c1L	DRSC14860	1.32e5	1.20e5	1.86e5	1.64e5	12600	inactive
8	Lrrk	DRSC15816	1.61e5	1.44e5	1.93e5	1.97e5	11345	inactive
9	Dph4	DRSC12318	85560	1.13e5	1.15e5	1.01e5	9330	inactive
10	CG42450	DRSC20022	83955	96790	99505	1.13e5	9160	inactive
11	CG2577	DRSC19863	66190	65845	97490	1.22e5	5265	inactive
12	PIG-N	DRSC06837	1.83e5	1.75e5	1.98e5	1.73e5	15015	inactive
13	CG42714	DRSC08798	1.83e5	1.85e5	1.84e5	1.98e5	15145	inactive
14	CG7506	DRSC10860	1.67e5	1.21e5	1.28e5	99295	16978	inactive
15	CG7557	DRSC10878	1.19e5	1.13e5	81565	34520	10970	inactive
16	CG9813	DRSC16569	1.08e5	1.02e5	94715	80920	9020	inactive
17	CG17470	DRSC02621	1.76e5	1.47e5	1.33e5	1.66e5	11175	inactive
18	Mdr50	DRSC07467	88440	85310	1.28e5	1.25e5	7805	inactive
19	CG7888	DRSC10926	1.13e5	79090	74000	27495	10440	inactive
20	Caper	DRSC02137	1.87e5	1.94e5	1.30e5	1.48e5	15465	inactive
21	CG9759	DRSC16558	1.73e5	2.14e5	1.22e5	1.21e5	12500	inactive
22	Tsen54	DRSC10527	1.82e5	1.26e5	1.91e5	1.78e5	7790	inactive
23	CG15475	DRSC02486	74200	44475	35610	29325	2250	inactive
24	CG34169	DRSC01579	65870	78645	72810	80870	7885	inactive

The list goes on (2 carried over from the part before).
no.	target gene	amplicon	induced reporter light, run 1, well a	induced reporter light, run 1, well b	control promoter light, run 1, well a	control promoter light, run 1, well b	uninduced reporter light, run 1, well a	outcome
23	CG15475	DRSC02486	74200	44475	35610	29325	2250	inactive
24	CG34169	DRSC01579	65870	78645	72810	80870	7885	inactive
25	Swim	DRSC04334	1.80e5	1.59e5	1.80e5	1.98e5	15340	inactive
26	Galphaf	DRSC11171	1.92e5	1.93e5	2.11e5	2.37e5	10240	inactive
27	RhoGAP19D	DRSC20499	1.41e5	1.43e5	1.12e5	71945	9830	inactive
28	RhoGAP19D	DRSC20500	98935	83580	95460	1.30e5	9820	inactive
29	CG15743	DRSC19709	89820	84650	1.14e5	1.33e5	7005	inactive
30	Nil	DRSC15953	1.49e5	1.62e5	1.95e5	2.06e5	11910	inactive
31	CG12479	DRSC19459	85570	85340	1.06e5	84915	11138	inactive
32	CG32683	DRSC17990	74950	74305	1.28e5	1.10e5	5195	inactive
33	CG32683	DRSC18232	1.12e5	99925	1.47e5	1.23e5	7610	inactive
34	CG32683	DRSC18233	92755	1.00e5	1.21e5	1.18e5	6405	inactive
35	CG14036	DRSC02361	79490	80520	66210	72580	4775	inactive
36	CG8003	DRSC10946	1.11e5	1.11e5	62130	35385	10080	inactive
37	Pgant6	DRSC08552	1.05e5	1.19e5	1.76e5	2.29e5	8120	inactive
38	CG13793	DRSC02297	98685	1.54e5	1.06e5	1.58e5	22760	inactive
39	edl	DRSC06516	64935	75115	1.50e5	1.84e5	6390	inactive
40	CG4080	DRSC10398	1.41e5	1.31e5	89620	41760	10828	inactive
41	raptor	DRSC18359	68745	79695	1.43e5	1.16e5	7815	inactive
42	CG33966	DRSC08256	91190	1.14e5	1.90e5	1.69e5	6250	inactive
43	CG17075	DRSC00483	2.08e5	1.93e5	2.37e5	2.52e5	17735	inactive
44	CG4465	DRSC15584	2.24e5	2.17e5	2.04e5	2.18e5	15490	inactive
45	Eglp4	DRSC04438	1.86e5	1.46e5	1.61e5	1.59e5	11590	inactive
46	Caf1-180	DRSC17807	87245	67500	97740	80785	7615	inactive
47	mthl9	DRSC08506	88425	1.41e5	2.00e5	1.29e5	7755	inactive
48	Mtpalpha	DRSC01994	2.45e5	2.28e5	1.85e5	1.77e5	17225	inactive
49	PTPMT1	DRSC14235	1.46e5	1.65e5	1.87e5	1.70e5	12175	inactive
50	CG5421	DRSC02858	1.39e5	1.30e5	1.27e5	1.62e5	11035	inactive
